Measured values taken from paper PMC3349659.
These are yes or no findings as the source states them, for the method shown. In cells and extracts the contact can be indirect. Some entries that bind do so weakly or less than the wild type.

Sequences of proteins named here, by UniProt entry; tags and fusion partners are left off.
UniProt O35929: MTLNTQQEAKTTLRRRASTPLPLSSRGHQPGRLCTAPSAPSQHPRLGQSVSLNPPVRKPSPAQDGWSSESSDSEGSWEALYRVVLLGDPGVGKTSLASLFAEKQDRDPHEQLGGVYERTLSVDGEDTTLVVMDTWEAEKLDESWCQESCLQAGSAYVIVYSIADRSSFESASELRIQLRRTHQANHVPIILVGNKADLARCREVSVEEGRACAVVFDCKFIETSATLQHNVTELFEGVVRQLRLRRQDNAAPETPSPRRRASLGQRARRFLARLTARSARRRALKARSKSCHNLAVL

Biological target: CFP-Rem (mouse) (UniProt O35929)
Test: co-IP; co-transfected HEK 293 cells, lysate in 50 mmol/L Tris-HCl, 150 mmol/L NaCl, 1% NP-40; precipitated with anti-Rem, anti-Gem, anti-Rem2 or anti-Rad antibody and protein G beads; blot with anti-GFP

| Substance | binding |
| --- | --- |
| YFP-β2a (from UniProt Q8VGC3-2 1-604) | binds |
| YFP-β_(2aTM) (from UniProt Q8VGC3-2 1-604) | no binding |
